Patent US20250145679A1
These are yes or no findings as the source states them, for the method shown. Some entries that bind do so weakly or less than the wild type.

Target: T1, IL-2/15Rβ (CD122) ECD (human) (UniProt P14784)
T1 sequence: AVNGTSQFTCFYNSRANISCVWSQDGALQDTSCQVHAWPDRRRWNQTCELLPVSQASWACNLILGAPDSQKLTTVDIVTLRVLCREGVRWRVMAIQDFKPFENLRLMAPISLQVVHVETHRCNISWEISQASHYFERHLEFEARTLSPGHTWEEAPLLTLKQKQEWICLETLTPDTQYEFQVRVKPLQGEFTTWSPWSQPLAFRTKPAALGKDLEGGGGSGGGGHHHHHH
Test: SPR, Biacore 8K

binding: binds
B1: W327151-TXU1.P1-V0013.uIgG4V322 (Fc fusion)
chain 1: NWVNVISDLKKIEDLIQSMHIDATLYTESDVHPSCKVTAMKCFLLELQVISLESGDASIHDTVENLIILANNSLSSNGNVTESGCKECEELEEKNIKEFLQSFVHIVQMFESKYGPPCPPCPAPEAAGGPSVFLFPPKPKDTLMISRTPEVTCVVVDVSQEDPEVQFNWYVDGVEVHNAKTKPREEQFNSTYRVVSVLTVLHQDWLNGKEYKCKVSNKGLPSSIEKTISKAKGQPREPQVYTLPPCQEEMTKNQVSLWCLVKGFYPSDIAVEWESNGQPENNYKTTPPVLDSDGSFFLYSRLTVDKSRWQEGNVFSCSVMHEALHNHYTQKSLSLSLGK
chain 2: ITCPPPMSVEHADIWVKSYSLYSRERYICNSGFKRKAGTSSLTECVLNKATNVAHWTTPSLKCIRESKYGPPCPPCPAPEAAGGPSVFLFPPKPKDTLMISRTPEVTCVVVDVSQEDPEVQFNWYVDGVEVHNAKTKPREEQFNSTYRVVSVLTVLHQDWLNGKEYKCKVSNKGLPSSIEKTISKAKGQPREPQVCTLPPSQEEMTKNQVSLSCAVKGFYPSDIAVEWESNGQPENNYKTTPPVLDSDGSFFLVSRLTVDKSRWQEGNVFSCSVMHEALHNHYTQKSLSLSLGK
